# Assay results as given in patent US12491246B2 (KLEO PHARMACEUTICALS, INC., priority 2018, dated 2025).
# Experiment: general procedure: Fmoc solid-phase peptide synthesis; CTC Resin; HBTU/DIEA (HATU/DIEA for biotin-PEG8-CH2CH2COOH)
# Conditions: conjugation step
substance,measurement,value
"PEPTIDE1{[CH2CO].A.R.[Ahp].Y.H.D.G.V.L.[Bip].[Ahp].D.C.[PEG6BCN].[Inp].G.[D-gGlu].[D-gGlu].[dE].[D-gGlu].[D-gGlu].G.G.D.C.A.W.H.L.G.E.L.V.W.C.T}$PEPTIDE1,PEPTIDE1,1:R3-14:R3|PEPTIDE1,PEPTIDE1,26:R3-36:R3$$$V2.0",conjugation yield,56.9%
same,final purity (method not given),98.4%

# HELM strings list residues between dots; [ac] is acetyl, [am] amide, other brackets name non-standard units.
